Data: PubChem BioAssay (NCATS)
Inconclusive means that the source gave no clear call. Such entries were picked first, then a sample of the others. For some of these results: A potency beside an inconclusive call is a rough fit, not a confirmed value. Active and inactive are the calls of the source. Calls follow the shape of the dose curve; as a rule, active = well fitted curve in the direction sought with a large enough effect; inconclusive = small, poorly fitted or top-dose-only effect, or another doubt; inactive = no such curve, though single readings can be large; an effect the other way counts as inactive or inconclusive.

Assays:
[1] = Quantitative High-Throughput drug screen in 47 multiple myeloma cell lines against the NCATS MIPE library collection: MOLP8_DSMZ cell viability assay (AID 1918977); also: potency is read from the fitted curve at half-maximal effect; nearly all actives have a fitted effect of over 45% in size
Procedure, shortened: (§1)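 Cells were exposed to library compounds for 48 hours, after which ATP was measured by CellTiter-Glo. Signal was taken as median relative luminescence units.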

[2] = Quantitative High-Throughput drug screen in 47 multiple myeloma cell lines against the NCATS MIPE library collection: LP1_DSMZ cell viability assay (AID 1918982); also: potency is read from the fitted curve at half-maximal effect; nearly all actives have a fitted effect of over 35% in size
Procedure, shortened: as §1

[3] = Quantitative High-Throughput drug screen in 47 multiple myeloma cell lines against the NCATS MIPE library collection: L363_DSMZ cell viability assay (AID 1918984); conditions: L363 myeloma viability, CellTiter-Glo ATP luminescence, 48 h; viability (% of control): at 45.8 µM (top of the series); also: potency is read from the fitted curve at half-maximal effect; nearly all actives have a fitted effect of over 40% in size
Procedure, shortened: as §1

[4] = Quantitative High-Throughput drug screen in 47 multiple myeloma cell lines against the NCATS MIPE library collection: KMS34_JCRB cell viability assay (AID 1918985); conditions: KMS34 myeloma viability, CellTiter-Glo ATP luminescence, 48 h; viability, percent of control: at 45.8 µM; also: nearly all actives have a fitted effect of over 40% in size; also: potency is read from the fitted curve at half-maximal effect;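 as to viability, percent of control: 100% = DMSO-only wells and 0% = media-only wells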
Procedure, shortened: as §1

[5] = Quantitative High-Throughput drug screen in 47 multiple myeloma cell lines against the NCATS MIPE library collection: OCIMY7_PLB cell viability assay (AID 1918987); conditions: OCI-MY7 myeloma viability, CellTiter-Glo ATP, 48 h; viability (% of DMSO): at 45.8 µM unless noted; also: potency is read from the fitted curve at half-maximal effect; nearly all actives have a fitted effect of over 65% in size
Procedure, shortened: as §1

[6] = Quantitative High-Throughput drug screen in 47 multiple myeloma cell lines against the NCATS MIPE library collection: SKMM1_PLB cell viability assay (AID 1919863); conditions: SKMM1 myeloma viability, CellTiter-Glo ATP, 48 h; viability: stronger effect = lower value; also: potency is read from the fitted curve at half-maximal effect; nearly all actives have a fitted effect of over 35% in size
Procedure, shortened: as §1

[7] = Quantitative High-Throughput drug screen in 47 multiple myeloma cell lines against the NCATS MIPE library collection: U266_ATCC cell viability assay (AID 1919864); also: nearly all actives have a fitted effect of over 35% in size; also: potency is read from the fitted curve at half-maximal effect;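 as to viability (% of DMSO control): 0% = media-only wells without cells and 100% = DMSO-only wells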
Procedure, shortened: as §1

[8] = Quantitative High-Throughput drug screen in 47 multiple myeloma cell lines against the NCATS MIPE library collection: PCM6_Riken cell viability assay (AID 1919870); conditions: CellTiter-Glo ATP, 48 h; viability (% of control): at 45.8 µM; also: potency is read from the fitted curve at half-maximal effect; nearly all actives have a fitted effect of over 30% in size
Procedure, shortened: as §1

[9] = Quantitative High-Throughput drug screen in 47 multiple myeloma cell lines against the NCATS MIPE library collection: KMS28PE_JCRB cell viability assay (AID 1918983); also: nearly all actives have a fitted effect of over 35% in size; also: potency is read from the fitted curve at half-maximal effect
Procedure, shortened: as §1

[10] = Quantitative High-Throughput drug screen in 47 multiple myeloma cell lines against the NCATS MIPE library collection: OPM1_PLB cell viability assay (AID 1918989); conditions: CellTiter-Glo, 48 h; viability (% of control): at 45.8 µM; also: nearly all actives have a fitted effect of over 40% in size; also: potency is read from the fitted curve at half-maximal effect;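 as to viability (% of control): 100% = DMSO-only wells and 0% = media-only wells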
Procedure, shortened: as §1

[11] = Quantitative High-Throughput drug screen in 47 multiple myeloma cell lines against the NCATS MIPE library collection: XG6_PLB cell viability assay (AID 1919865); conditions: XG6 myeloma viability, CellTiter-Glo ATP luminescence, 48 h; viability (% of control): at 45.8 µM; also: nearly all actives have a fitted effect of over 40% in size; also: potency is read from the fitted curve at half-maximal effect;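 as to viability (% of control): 100% = DMSO-only wells and 0% = media-only wells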
Procedure, shortened: as §1

[12] = Quantitative High-Throughput drug screen in 47 multiple myeloma cell lines against the NCATS MIPE library collection: XG1_PLB cell viability assay (AID 1919866); also: nearly all actives have a fitted effect of over 35% in size; also: potency is read from the fitted curve at half-maximal effect
Procedure, shortened: as §1

[13] = Quantitative High-Throughput drug screen in 47 multiple myeloma cell lines against the NCATS MIPE library collection: UTMC2_PLB cell viability assay (AID 1919868); conditions: CellTiter-Glo ATP luminescence, 48 h; viability (% of DMSO control): at 45.8 µM; also: potency is read from the fitted curve at half-maximal effect; nearly all actives have a fitted effect of over 55% in size
Procedure, shortened: as §1

[14] = Quantitative High-Throughput drug screen in 47 multiple myeloma cell lines against the NCATS MIPE library collection: VP6_DJ cell viability assay (AID 1919867); conditions: ATP luminescence, 48 h; viability (% of DMSO): at 45.8 µM
Procedure, shortened: as §1

[15] = Quantitative High-Throughput drug screen in 47 multiple myeloma cell lines against the NCATS MIPE library collection: OCIMY5_PLB cell viability assay (AID 1918988); conditions: OCI-MY5 myeloma viability, ATP luminescence, 48 h; viability, % of control: at 45.8 µM;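 also: 100% = DMSO-treated wells and 0% = wells with media alone; nearly all actives have a fitted effect of over 65% in size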
Procedure, shortened: as §1

[16] = Quantitative High-Throughput drug screen in 47 multiple myeloma cell lines against the NCATS MIPE library collection: NCIH929_DSMZ cell viability assay (AID 1918978); conditions: NCI-H929 myeloma viability, CellTiter-Glo ATP, 48 h; viability, % of control: at 45.8 µM
Procedure, shortened: as §1

[17] = Quantitative High-Throughput drug screen in 47 multiple myeloma cell lines against the NCATS MIPE library collection: OCIMY1_PLB cell viability assay (AID 1918979)
Procedure, shortened: as §1

[18] = Quantitative High-Throughput drug screen in 47 multiple myeloma cell lines against the NCATS MIPE library collection: MM1S_ATCC cell viability assay (AID 1918980); also: potency is read from the fitted curve at half-maximal effect; nearly all actives have a fitted effect of over 45% in size
Procedure, shortened: as §1

[19] = Quantitative High-Throughput drug screen in 47 multiple myeloma cell lines against the NCATS MIPE library collection: MM1R_ATCC cell viability assay (AID 1918981)
Procedure, shortened: as §1

[20] = Quantitative High-Throughput drug screen in 47 multiple myeloma cell lines against the NCATS MIPE library collection: PE2_PLB cell viability assay (AID 1919869); conditions: PE2_PLB myeloma cells viability, ATP luminescence, 48 h; viability (% of control): at 45.8 µM
Procedure, shortened: as §1

CCc1cccc(CC)c1NC(=O)N1Cc2[nH]nc(NC(=O)c3ccc(N4CCN(C)CC4)cc3)c2C1
inconclusive: Potency [2] 4.69 µM [cytotoxic, partial curve, poor fit] | Potency [3] 11.8 µM [cytotoxic, partial curve] | Potency [4] 5.26 µM [cytotoxic, full curve] | Potency [7] 26.4 µM [cytotoxic, single point] | Potency [8] 6.62 µM [cytotoxic, partial curve, poor fit]
active: Potency [1] 16.6 µM | Potency [5] 10.5 µM | Potency [6] 2.64 µM

NC[C@H](O)c1ccc(O)c(O)c1
active: Potency [9] 18.7 µM
inactive: Potency [7] | Potency [11] | Potency [12]
inconclusive: Potency [1] 23.5 µM [cytotoxic, partial curve, poor fit] | Potency [3] 0.0132 µM [cytotoxic, full curve, poor fit] | Potency [5] 26.4 µM [cytotoxic, partial curve, poor fit] | Potency [10] 0.0296 µM [cytotoxic, full curve, poor fit] | Potency [6] 18.7 µM [cytotoxic, partial curve, poor fit] | Potency [13] 0.0209 µM [cytotoxic, full curve, poor fit] | Potency [8] 1.87 µM [cytotoxic, full curve, poor fit]

CC(C)c1cnn2c(NCc3ccccc3)cc(N[C@@H](CO)[C@H](O)CO)nc12
active: Potency [1] 0.166 µM | Potency [9] 0.296 µM | Potency [6] 0.372 µM | Potency [11] 0.235 µM | Potency [14] 0.187 µM | Potency [13] 0.209 µM | Potency [8] 0.0935 µM

C#CCC(Cc1cnc2nc(N)nc(N)c2n1)c1ccc(C(=O)N[C@@H](CCC(=O)O)C(=O)O)cc1 (stereo partly drawn)
inconclusive: Potency [1] 0.003 µM [cytotoxic, full curve, poor fit] | Potency [3] 0.105 µM [cytotoxic, full curve, poor fit] | Potency [5] 1.32 µM [cytotoxic, full curve, poor fit] | Potency [8] 0.166 µM [cytotoxic, full curve]
active: Potency [4] 0.209 µM | Potency [11] 0.0418 µM
inactive: Potency [9] | Potency [15]

CNC(=O)c1ccc(N2C(=S)N(c3cnc(C#N)c(C(F)(F)F)c3)C(=O)C23CCC3)cc1F
active: Potency [3] 7.43 µM | Potency [5] 0.526 µM | Potency [13] 3.32 µM
inactive: Potency [4]
inconclusive: Potency [1] 4.18 µM [cytotoxic, partial curve, poor fit] | Potency [2] 37.2 µM [cytotoxic, single point] | Potency [6] 23.5 µM [cytotoxic, partial curve, poor fit]

O=C(CCCCCCNC(=O)c1cnc(N(c2ccccc2)c2ccccc2)nc1)NO
active: Potency [1] 4.18 µM | Potency [4] 5.9 µM | Potency [6] 9.35 µM | Potency [7] 9.35 µM | Potency [12] 9.35 µM | Potency [13] 7.43 µM

COc1cc2ncnc(Nc3cccc(Br)c3)c2cc1OC
inactive: Potency [7]
inconclusive: Potency [16] 37.2 µM [cytotoxic, single point] | Potency [17] 37.2 µM [cytotoxic, single point] | Potency [19] 1.05 µM [cytotoxic, full curve] | Potency [2] 37.2 µM [cytotoxic, single point] | Potency [3] 16.6 µM [cytotoxic, partial curve, poor fit] | Potency [4] 37.2 µM [cytotoxic, single point] | Potency [6] 3.72 µM [cytotoxic, full curve] | Potency [8] 0.743 µM [cytotoxic, full curve, poor fit]
active: Potency [18] 0.0148 µM

CN(C)CCOc1ccc(-c2nc(-c3ccc4c(c3)CCC4=NO)c(-c3ccncc3)[nH]2)cc1
inconclusive: Potency [5] 18.7 µM [cytotoxic, partial curve, poor fit] | Potency [13] 37.2 µM [cytotoxic, single point]
active: Potency [2] 20.9 µM | Potency [4] 13.2 µM | Potency [6] 20.9 µM | Potency [14] 18.7 µM

CN[C@H]1CCc2cc(OC)c(OC)c(OC)c2-c2ccc(OC)c(=O)cc21
active: Potency [7] 0.0066 µM | Potency [13] 0.0093 µM
inconclusive: Potency [17] 0.0012 µM [cytotoxic, full curve, poor fit] | Potency [3] 0.0026 µM [cytotoxic, full curve] | Potency [4] 0.0013 µM [cytotoxic, full curve] | viability (% of control) [10] 9.36% [cytotoxic] | Potency [11] 0.0012 µM [cytotoxic, full curve, poor fit] | Potency [14] 0.003 µM [cytotoxic, full curve] | Potency [20] 0.0264 µM [cytotoxic, full curve] | Potency [8] 0.0148 µM [cytotoxic, full curve]
